Measured data: PubChem BioAssay AID1224826 (NIAID, 2016)
Purpose: 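Knock-downs that raise or lower Tnf reporter signal after endotoxin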 (primary screen). System: RAW264.7 G9 macrophages from mouse bearing reporters for p65 (GFP) and the Tnf promoter (mCherry). Reagent: siRNA pool against mouse genes, 100 nM. Time to read-out: 16 h of LPS stimulation, after 2 days of siRNA transfection. Conditions: bacterial lipopolysaccharide (Salmonella minnesota R595), 10 ng/ml. Detection: 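Imaged Tnf reporter mCherry in nuclei, minus background, normalised per plate to the median and expressed as robust z-scores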. Direction: Tnf reporter robust z-score: higher = stronger Tnf promoter reporter signal after LPS. Rule for the call: 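Called active when robust z-score is at most -1.3, matching the median of the Tlr4 knock-down control, or over 3; control wells and wells with under 50 cells never active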. Calls: active = Tnf reporter clearly lowered or raised; inactive = no clear change in Tnf reporter.
In all, the deposit lists about 17,000 reagents; below is a random part of them. Of all reagents, about 1,110 (6.6%) were called active. 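Active means lowered or raised reporter signal; replicate intensities are raw and not normalised per plate.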 Not all columns of the deposit are shown. Reagent sequences are not shown.

For Sema4f the deposit lists Tnf reporter robust z-score -1.16; fewer than 50 cells in well enough cells in well; inactive.
Against Or14j9 (olfactory receptor family 14 subfamily J member 9) the deposit lists Tnf reporter robust z-score 1.1; fewer than 50 cells in well enough cells in well; inactive.
Frs2 (fibroblast growth factor receptor substrate 2) gave Tnf reporter robust z-score 1.01; fewer than 50 cells in well enough cells in well; inactive.
Mttp (microsomal triglyceride transfer protein) gave Tnf reporter robust z-score 0.12; fewer than 50 cells in well enough cells in well; inactive.
Depletion of Lrrc25 (leucine rich repeat containing 25) came out at: Tnf reporter robust z-score -0.72; fewer than 50 cells in well enough cells in well; inactive.
For Pold2 (polymerase (DNA directed), delta 2, regulatory subunit), the values are Tnf reporter robust z-score -0.08; fewer than 50 cells in well enough cells in well; inactive.
Against Or8k18 (olfactory receptor family 8 subfamily K member 18) the deposit lists Tnf reporter robust z-score -0.12; fewer than 50 cells in well enough cells in well; inactive.
For Pcm1 (pericentriolar material 1), the entry reads Tnf reporter robust z-score 0.54; fewer than 50 cells in well enough cells in well; inactive.
Depletion of Eif4e2 (eukaryotic translation initiation factor 4E member 2) resulted in: Tnf reporter robust z-score 0.07; fewer than 50 cells in well enough cells in well; inactive.
Knock-down of Rpgrip1 (retinitis pigmentosa GTPase regulator interacting protein 1) resulted in: Tnf reporter robust z-score 0.49; fewer than 50 cells in well enough cells in well; inactive.

A stretch from the list above:
Sema4f — Tnf reporter robust z-score: -1.16; fewer than 50 cells in well: enough cells in well; Outcome: inactive
Or14j9 (olfactory receptor family 14 subfamily J member 9) — Tnf reporter robust z-score: 1.1; fewer than 50 cells in well: enough cells in well; Outcome: inactive

More results follow.
After knock-down of Gabrg2 (gamma-aminobutyric acid type A receptor, subunit gamma 2) the results were Tnf reporter robust z-score -0.76; fewer than 50 cells in well enough cells in well; inactive.
For Dscaml1 (DS cell adhesion molecule like 1), the values are fewer than 50 cells in well fewer than 50 cells per well; well left out of calls; inactive.
With knock-down of Krt79 (keratin 79) the results were Tnf reporter robust z-score -0.81; fewer than 50 cells in well enough cells in well; inactive.
Knock-down of Flywch2 (FLYWCH family member 2) gave: fewer than 50 cells in well fewer than 50 cells per well; well left out of calls; inactive.
Lsm12 (LSM12 homolog) gave Tnf reporter robust z-score 0.99; fewer than 50 cells in well enough cells in well; inactive.
C130073F10Rik (RIKEN cDNA C130073F10 gene) gave Tnf reporter robust z-score -0.75; fewer than 50 cells in well enough cells in well; inactive.
With knock-down of Pnma1 (paraneoplastic antigen MA1), the record shows Tnf reporter robust z-score 0.33; fewer than 50 cells in well enough cells in well; inactive.
For Nup58 (nucleoporin 58) the deposit lists Tnf reporter robust z-score -1.2; fewer than 50 cells in well enough cells in well; inactive.
Amz1 (archaelysin family metallopeptidase 1) showed Tnf reporter robust z-score -0.03; fewer than 50 cells in well enough cells in well; inactive.
Chst9 (carbohydrate sulfotransferase 9) gave Tnf reporter robust z-score 0.33; fewer than 50 cells in well enough cells in well; inactive.
With knock-down of Or4c100 (olfactory receptor family 4 subfamily C member 100) the results were Tnf reporter robust z-score -0.18; fewer than 50 cells in well enough cells in well; inactive.
